Construct, isoform or probe ends are uncertain for at least one entry. A weaker result is weaker than the reference pair of the same experiment. For some of these results: At least one result comes from cells or an extract, where the contact may be indirect. At least one verdict rests on a figure or table, not on a statement of the authors.
What was measured:
[1] = target: STAT1 (recombinant) (human) (UniProt P42224); assay: EMSA; conditions: EMSA: 30 min incubation, FAM probe (amount printed as '10 p.m.'), native 5% PAGE in 0.5x TBE, recombinant protein, label: FAM
FLAG-STAT1 = FLAG-STAT1 (UniProt P42224); assay: pull-down; conditions: pull-down: 0.1% NP40 buffer, 1 uM biotin dsDNA, streptavidin beads 2 h at 4 C, salt and pH not stated, protein in a lysate after overexpression, protein details: FLAG, label: 5' biotin

Chains of the proteins cited; added tags and fusions are not shown. Lines headed by an entry give the natural chain unless they say otherwise; changes in a name come on top.
UniProt P42224: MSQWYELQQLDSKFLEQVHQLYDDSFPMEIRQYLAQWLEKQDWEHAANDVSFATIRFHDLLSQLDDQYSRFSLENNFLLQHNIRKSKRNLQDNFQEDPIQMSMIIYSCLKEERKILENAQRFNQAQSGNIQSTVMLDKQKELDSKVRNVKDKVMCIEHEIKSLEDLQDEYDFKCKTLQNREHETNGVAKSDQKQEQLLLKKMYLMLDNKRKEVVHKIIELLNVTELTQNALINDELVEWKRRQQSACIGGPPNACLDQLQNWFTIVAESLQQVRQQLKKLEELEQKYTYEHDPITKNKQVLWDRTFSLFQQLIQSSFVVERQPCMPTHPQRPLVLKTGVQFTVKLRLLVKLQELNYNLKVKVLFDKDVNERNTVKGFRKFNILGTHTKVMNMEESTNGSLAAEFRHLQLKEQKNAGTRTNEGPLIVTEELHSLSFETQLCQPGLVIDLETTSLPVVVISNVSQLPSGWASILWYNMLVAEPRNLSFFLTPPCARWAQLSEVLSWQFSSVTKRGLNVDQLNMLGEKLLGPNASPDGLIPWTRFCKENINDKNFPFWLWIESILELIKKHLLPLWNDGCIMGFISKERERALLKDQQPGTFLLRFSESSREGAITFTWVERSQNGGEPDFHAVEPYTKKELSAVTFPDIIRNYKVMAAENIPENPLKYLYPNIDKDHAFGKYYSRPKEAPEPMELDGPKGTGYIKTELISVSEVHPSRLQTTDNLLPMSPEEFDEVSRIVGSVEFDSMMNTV

| Sequence | binding result ([1]; STAT1 pretreated with 25 uM sulforaphane) | binding result ([1]; no SFN) | binding result (FLAG-STAT1; cells pretreated with 25 uM sulforaphane, then IFN-g) | binding result (FLAG-STAT1; cells treated with IFN-g 200 ng/mL, no SFN) |
| --- | --- | --- | --- | --- |
| GCCTGATTTCCCCGAAATGACGGCAC (double strand) [IRF1 promoter probe (EMSA)] | binds more weakly | binds |  |  |
| TTCCCCGAATTCCCCGAA (double strand) [2xGAS probe (pull-down)] |  |  | binds more weakly | binds |

Reference: paper PMC11875811
